Data: paper PMC4728063
Results are given in words; binding and its absence hold for the method and conditions named. Some entries that bind do so weakly or less than the wild type. Tags and fused reporters may be left off the sequences shown.

Legend:
[1] = target: T1, RS1 (retinoschisin), human, recombinant, secreted from Sf21 insect cells (human), O15537; test: SDS gel electrophoresis, reducing versus non-reducing; purified RS1 on SDS gels under disulphide reducing (about 25 kDa) and non-reducing (about 200 kDa) conditions; both purified; conditions: remark: other sources report otherwise
T1 chain: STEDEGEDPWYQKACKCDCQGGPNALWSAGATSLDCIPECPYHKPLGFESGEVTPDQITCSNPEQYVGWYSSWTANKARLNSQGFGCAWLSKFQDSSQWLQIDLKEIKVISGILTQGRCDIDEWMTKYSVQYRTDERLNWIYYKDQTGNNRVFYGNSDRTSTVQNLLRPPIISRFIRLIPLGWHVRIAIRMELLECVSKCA

[2] = target: T1, RS1 (retinoschisin), human, …; test: SEC; nondenatured RS1 on a calibrated Superdex 200 10/300 column, 20mM Tris-HCl pH 7.5, 100mM NaCl, 0.5 ml/min; both purified; conditions: remark: other sources report otherwise

binding [1]: binds | binding [2]: binds
B1: RS1 (retinoschisin), human, recombinant, secreted from Sf21 insect cells, O15537 24-224 (natural protein)
chain: STEDEGEDPWYQKACKCDCQGGPNALWSAGATSLDCIPECPYHKPLGFESGEVTPDQITCSNPEQYVGWYSSWTANKARLNSQGFGCAWLSKFQDSSQWLQIDLKEIKVISGILTQGRCDIDEWMTKYSVQYRTDERLNWIYYKDQTGNNRVFYGNSDRTSTVQNLLRPPIISRFIRLIPLGWHVRIAIRMELLECVSKCA
